B1: il2ra_site2_2erj_sap_16_mot_HHH_b1_00941_000000051_0001_45_58_H_._HHH_b2_03323_0001_0000600045_0000001_0_0001_af2pred_0001_1_af2pred_swapped (protein)
chain: SSSSSSSREEVEELLEEAKRIENLRRVLELLQEADKIASELDDEELLREIQKVFEELASSSSSSS
B2: il2ra_site2_2erj_normal_mot_HHH_b2_00732_af2_000000006_0001_23_40_H_._HHH_b1_01925_af2_0001_0000100002_0000001_0 (protein)
chain: SSSSDTAEENLEAIEEIVQELEENGNPEQARHYVKLAIKMARRAGDEEVVEELEKLLEELESSSS
B3: il2ra_site1_1z92_sap_15_mot_HHH_b1_08504_af2_000000168_0001_42_54_H_._HHH_b1_07766_0001_0000200005_0000001_1_0001_af2pred_0001_af2pred (protein)
chain: SSSSSSSEEVERVDELFREASHVSREEARKLLEEALEIAEEANDEREQKEIRHLLKAFSSSSSSS
B4: il2ra_site2_3nfp_sap_16_mot_HHH_b2_07129_000000128_0001_19_36_H_._HHH_b2_06957_af2_0001_0000400016_0000001_0_0001 (protein)
chain: SSSSDHEEEYLEAALELLKEAVKEGDEEAAREHTETARQAAEHARDEEILEALEELIEELESSSS
B5: il2ra_site1_2b5i_normal_mot_22370d59370c406a0c205a431f537cfa_0001_af2_000000141_0001_1_31_H_._HHH_b1_04252_af2_0001_0000200010_0000001_0_af2pred_dldesign_0_af2p … (protein)
chain: SSSSKELEARAAALVERLAEEYKLTLEQEKELERLAVELIYKGLSLEEIEEKLRELAEKLGSSSS
B6: il2ra_site1_2b5i_sap_18_mot_HHH_b1_06900_af2_000000048_0001_21_36_H_._HHH_b2_04242_0001_0000100001_0000001_0_0001_af2pred_dldesign_0_af2pred (protein)
chain: SSSSSLAKEALELFLEADKLFQAGKEEEAKKKLEEALELAKKAGNKSLVKAIESALEDLESSSSS
B7: il2ra_site1_2b5i_normal_mot_HHH_b1_02271_000000068_0001_1_16_H_._HHH_b1_04984_af2_0001_0000200014_0000001_0_af2pred_dldesign_0_af2pred (protein)
chain: SSSSSDVEAEVEELIRRARELAAAGKRREALELLEEAAKLLDAADMEELLDEVEALAKELSSSSS
B8: il2ra_site1_1z92_normal_mot_HHH_b1_05017_af2_000000137_0001_42_54_H_._HHH_b2_03124_0001_0000300027_0000001_0_af2pred_0001_af2pred (protein)
chain: SSSSSSSDVEEEAEELLKELEELGDERALKALRFALRAVRLLGSPKAREFLEEMLKDLSSSSSSS
B9: il2ra_site1_1z92_sap_17_mot_1581cc1c700002558836ca695aafbf97_0001_1_af2_000000099_0001_17_32_H_._06fb79ff5b0635ea054e4773f75fe636_0001_af2_0001_0000300031_00000 … (protein)
chain: SSSSDLEERAQEIVEELVEELNLSEEIEEALRKDAEAAVRLGLSEKSIEIALRRAAQRALSSSSS
B10: il2ra_site1_2b5i_sap_9_mot_ems_3hM_3687_af2_000000248_0001_45_64_H_._f30f37b9280b12e082159cc05f8864eb_0001_1_af2_0001_0000500021_0000001_0_0001_af2pred_dldesign … (protein)
chain: SSSSSSRVRELFLEAEALKKAGKEEEAKKVAEEALAEARAAKMPALARLLELALKNLESSSSSSS
B11: il2ra_site2_3nfp_sap_14_mot_HHH_b1_02297_000000279_0001_41_58_H_._HHH_b2_00015_0001_0000300025_0000001_1_0001 (protein)
chain: SSSSDKSEEYLRIALELAEEALEAGDEESVRSILETAKAAAESNNDEEVLRLLREIEEELSSSSS
B12: il2ra_site2_2erj_sap_26_mot_HHH_b2_08005_af2_000000017_0001_39_52_H_._5f42aca8a0c299d7b7d7982f3e471efe_0001_0001_0000400050_0000001_0_0001 (protein)
chain: SSSSDLEEEVERIEKEAEELYKNGNPEEALRLLSELFDELYQLGDHELAARVIKLVAELARSSSS
B13: il2ra_site2_3nfp_normal_mot_HHH_b2_00531_000000244_0001_40_57_H_._HHH_b2_00538_0001_0000500026_0000001_0_af2pred_0001_1_af2pred_swapped (protein)
chain: SSSSSDEEEVEERIEQLLEEAKKIDDEEELQIVLLEAAVLALLLGDPEIIREVRRVAEELSSSSS
B14: il2ra_site1_3nfp_sap_14_mot_HHH_b1_07910_000000017_0001_1_16_H_._5d1becb6a9d54c9d42db3f0d03ab68b4_0001_af2_0001_0000200015_0000001_0_0001 (protein)
chain: SSSSSDNVEAARRFDELLKQLKHVSEEEQEEILRELEEIAEEFNTPLARRLVEQFKRLLSSSSSS
B15: il2ra_site2_2erj_normal_mot_HHH_b2_06545_000000262_0001_21_37_H_._HHH_b1_03255_0001_0000800014_0000001_0_af2pred_0001_1_af2pred_swapped (protein)
chain: SSSSTEEEIEELIERIEELIKRGDREEAHELLWEALELALKIDNEELEERLRRLREEVEGSSSSS
B16: il2ra_site1_2b5i_sap_10_mot_HHH_b1_06833_000000178_0001_1_19_H_._HHH_b2_00933_0001_0000100002_0000001_1_0001 (protein)
chain: SSSSTEEAKELVRFVLRLAWKFGLSLEQMQELAELLDELVARGVDPEEIRRLLEELAKELSSSSS
B17: il2ra_site1_1z92_normal_mot_HHH_b1_05331_000000138_0001_42_56_H_._HHH_b2_00843_0001_0000100001_0000001_0_af2pred_0001_af2pred_1 (protein)
chain: SSSSTDSSREAEEILREILKLLKEGDPEQVEELLERLERLAEEENDPAAKRAVEILKKRLDSSSS
B18: il2ra_site1_3nfp_sap_20_mot_HHH_b2_05589_af2_000000060_0001_42_57_H_._HHH_b1_00249_0001_0000500016_0000001_0_0001_af2pred_0001_af2pred_1 (protein)
chain: SSSSDELEELLKELEEAVEEGDEELVKELARKVFELAKKLKDDEVAREVARLLLEFFRRLSSSSS
B19: il2ra_site2_3nfp_normal_mot_HHH_b1_00660_af2_000000090_0001_40_57_H_._HHH_b1_00664_af2_0001_0000300018_0000001_0_af2pred_0001_af2pred (protein)
chain: SSSSDEEEEEIRRLLEEAKRIEDPEEAAKVVREAALLAFELNNFELLAEALKLLRKLIRDSSSSS
B20: il2ra_site1_3nfp_normal_mot_HHH_b1_01335_af2_000000105_0001_39_53_H_._HHH_b1_07427_af2_0001_0000600042_0000001_1 (protein)
chain: SSSSDERLQRIYELMQKAAKIPDDEEVKKIIEEALELAERRGDEILFEKLERALEFLKRGSSSSS
B21: il2ra_site1_3nfp_normal_mot_e23a5047defaa1e2c88e76f09435f1ea_0001_000000111_0001_16_31_H_._b0b8df4b7fc8e9004491a89afff21cfb_0001_af2_0001_0000800086_0000001_0 (protein)
chain: DKAIEYAIKQFKKDGIPPEKIVEFLLEAAKRAGLPPEELQKILEELLEKTGDPLLEELLELLEER
B22: il2ra_site2_2erj_sap_21_mot_HHH_b1_06344_af2_000000198_0001_42_57_H_._5e8ab3ebaa49a9e680896593b179b5f8_0001_af2_0001_0000100023_0000001_0_0001 (protein)
chain: SSSSDEELRELYELLNELMRLLSRGDEERLEELLKQLEELAKKLNSEAAREIIERVEKRLSSSSS
B23: il2ra_site2_3nfp_normal_mot_HHH_b2_07651_000000186_0001_1_16_H_._HHH_b1_01772_af2_0001_0000400026_0000001_0 (protein)
chain: SSSSSSDDEELEIYERVIELAKLNTEESREELEELLEEAKELGNAVLFRSIESFLEALSSSSSSS
B24: il2ra_site2_3nfp_sap_12_mot_HHH_b1_02297_000000279_0001_41_58_H_._HHH_b2_04868_0001_0000100005_0000001_0_0001 (protein)
chain: SSSSSSDVEELAEEAIEKAEEAGDDKAARYLRVALELLKEAGNPSIKEVLKAAAESWKSSSSSSS

This is one part of the list.

The target in this assay is il2ra, P01589. Put plainly: yeast display titration.
For B1, the “apparent Kd” value is “inactive: no binding seen”.

For B2, the “apparent Kd” value is “inactive: no binding seen”.

B3: the “apparent Kd” value is “inactive: no binding seen”.

B4: the “apparent Kd” value is “inactive: no binding seen”.

Turning to B5, the “apparent Kd” value was “inactive: no binding seen”.

For the molecule B6, the “apparent Kd” value was “inactive: no binding seen”.

Regarding B7, the “apparent Kd” value is “inactive: no binding seen”.

On to B8, for which the “apparent Kd” value was “inactive: no binding seen”.

For the molecule B9, the “apparent Kd” value was “inactive: no binding seen”.

Regarding B10, the “apparent Kd” value was “inactive: no binding seen”.

As to B11, the “apparent Kd” value is “inactive: no binding seen”.

On to B12, for which the “apparent Kd” value is “inactive: no binding seen”.

Take B13: the “apparent Kd” value is “inactive: no binding seen”.

B14: the “apparent Kd” value was “inactive: no binding seen”.

On to B15, for which the “apparent Kd” value is “inactive: no binding seen”.

On to B16, for which the “apparent Kd” value was “inactive: no binding seen”.

Consider B17, for which the “apparent Kd” value is “inactive: no binding seen”.

Regarding B18, the “apparent Kd” value was “inactive: no binding seen”.

On to B19, for which the “apparent Kd” value was “inactive: no binding seen”.

Regarding B20, the “apparent Kd” value is “inactive: no binding seen”.

For the molecule B21, the “apparent Kd” value was “inactive: no binding seen”.

For B22, the “apparent Kd” value is “inactive: no binding seen”.

In the case of B23, the “apparent Kd” value was “inactive: no binding seen”.

Turning to B24, the “apparent Kd” value is “inactive: no binding seen”.

For the origin of these results see paper PMC10163288.
